In one assay the target is FLAG-BCL11B p.R3S (UniProt Q9C0K0). Briefly: co-IP; anti-FLAG immunoprecipitation of FLAG-BCL11B or FLAG-BCL11B p.R3S from native extracts of transiently transfected HEK293T cells (20 mM HEPES pH 7.4, 250 mM NaCl, 2 mM EDTA, 10% glycerol, 0.5% NP-40); blots probed for BCL11B, MTA2, HDAC2, EZH2 and Myc (Myc-SIRT1).
The next assay addresses FLAG-BCL11B (UniProt Q9C0K0). The assay is described as above.

Protein sequences, listed by entry. Tags and fused reporters are not part of them. Lines headed by an entry give the natural chain unless they say otherwise; changes in a name come on top.
UniProt Q9C0K0: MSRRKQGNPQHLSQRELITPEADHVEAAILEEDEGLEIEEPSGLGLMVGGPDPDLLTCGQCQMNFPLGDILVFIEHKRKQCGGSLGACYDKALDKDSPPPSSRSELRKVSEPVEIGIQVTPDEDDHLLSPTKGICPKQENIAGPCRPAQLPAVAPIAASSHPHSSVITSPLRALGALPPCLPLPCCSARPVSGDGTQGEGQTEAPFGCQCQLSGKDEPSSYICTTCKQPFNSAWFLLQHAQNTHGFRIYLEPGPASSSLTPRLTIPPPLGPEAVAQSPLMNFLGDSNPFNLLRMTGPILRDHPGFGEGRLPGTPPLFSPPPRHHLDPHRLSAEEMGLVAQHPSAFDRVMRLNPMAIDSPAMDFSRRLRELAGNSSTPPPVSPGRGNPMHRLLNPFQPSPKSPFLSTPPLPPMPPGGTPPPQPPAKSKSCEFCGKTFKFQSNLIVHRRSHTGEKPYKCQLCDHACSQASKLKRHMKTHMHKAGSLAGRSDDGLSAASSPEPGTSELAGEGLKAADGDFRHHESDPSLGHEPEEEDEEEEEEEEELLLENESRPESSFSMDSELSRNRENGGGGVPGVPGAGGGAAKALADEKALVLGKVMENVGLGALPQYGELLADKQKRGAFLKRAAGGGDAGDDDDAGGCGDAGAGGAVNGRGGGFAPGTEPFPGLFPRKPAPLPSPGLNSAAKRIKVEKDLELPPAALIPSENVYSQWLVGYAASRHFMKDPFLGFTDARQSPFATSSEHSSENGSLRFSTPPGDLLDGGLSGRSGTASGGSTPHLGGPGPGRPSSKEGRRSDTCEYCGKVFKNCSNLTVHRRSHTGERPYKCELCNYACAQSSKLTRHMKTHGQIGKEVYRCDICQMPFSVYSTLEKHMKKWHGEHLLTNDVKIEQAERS
UniProt Q92769: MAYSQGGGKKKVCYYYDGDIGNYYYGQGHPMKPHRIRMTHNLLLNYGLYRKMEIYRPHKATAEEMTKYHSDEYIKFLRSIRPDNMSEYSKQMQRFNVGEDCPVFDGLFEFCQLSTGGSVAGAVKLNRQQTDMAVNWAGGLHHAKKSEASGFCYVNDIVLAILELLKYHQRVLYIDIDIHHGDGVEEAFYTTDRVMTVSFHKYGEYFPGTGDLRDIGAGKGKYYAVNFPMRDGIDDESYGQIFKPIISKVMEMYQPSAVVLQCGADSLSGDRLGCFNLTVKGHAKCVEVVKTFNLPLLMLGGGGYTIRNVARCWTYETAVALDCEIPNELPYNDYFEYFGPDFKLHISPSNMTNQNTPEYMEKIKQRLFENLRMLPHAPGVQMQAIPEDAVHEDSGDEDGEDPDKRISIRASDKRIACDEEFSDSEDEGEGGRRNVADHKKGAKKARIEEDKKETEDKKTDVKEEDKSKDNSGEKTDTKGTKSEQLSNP

These are yes or no findings as the source states them, for the method shown. In cells and extracts the contact can be indirect. Some entries that bind do so weakly or less than the wild type.

As for HDAC2 (from UniProt Q92769 1-488), the binding result with FLAG-BCL11B p.R3S was “no binding”; with FLAG-BCL11B it was “binds”.

These data come from PMC6644156, “A de novo substitution in BCL11B leads to loss of interaction with transcriptional complexes and craniosynostosis” (Human Molecular Genetics, 2019).
